Patent publication US20240391872A1, “PHENOXY-ACETYL-THIOUREIDO-BENZENESULFONAMIDE DERIVATIVES, AND THEIR USES” (priority 2021, published 2024)
For at least one compound, name, drawing or mass did not settle the structure.

Test system: SARS-CoV-2
Assay type: cell-based
Details: Huh7.5.1 cells, 10 μM, MOI 0.5, 48 h

SMILES: CCC(CC)COC(=O)[C@H](C)N[P@](=O)(OC[C@H]1O[C@@](C#N)(c2ccc3c(N)ncnn23)[C@H](O)[C@@H]1O)Oc1ccccc1 [Rem, Remdesivir, reference compound]
- neosynthesized Spike protein, Western blot: could barely be detected
- viral protein synthesis, microscopy and flow cytometry: prevent viral protein synthesis
